## Library screening results

Measurements from “University of Dundee, Small-Polar-MMV Screening Library” (2021), ChEMBL document CHEMBL3988442.

Each number is a percent effect as filed. How 0% and 100% were set is not recorded. Most values in the screen are low, and negative values occur. Compounds were drawn at random from those tested, without regard to their results.

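Whole-cell assay for inhibitors of Mycobacterium tuberculosis growth, labelled Cornell in the record; the read-out is not stated. The concentration is filed as 10 mM, unlikely as a test dose, so the dose is not known. The record gives no direction; compounds strong in two other growth screens of this library score well above the rest, so higher reads as stronger inhibition. About 53,000 compounds were tested under these conditions; 1.7% (about 900) showed 50% or more at least once.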

* CC(NC(=O)c1cc(-c2cccc(Cl)c2)no1)C(=O)N1CCCC1 (configuration not stated) | 1.351%
* COc1ccc(-c2cccc(-c3ccn(CCN(C)C)n3)c2)nn1 | 2.294%
* CCc1nc(C)c([C@H]2CN(C)C[C@@H]2C(=O)Nc2cccc3cn[nH]c23)[nH]1 | -15.57%
* [H][C@]12CC[C@@]3(N=C(CC)NC3=O)[C@@]1([H])CN(C(=O)NCc1ccccc1)C2 | 12.07%
* COc1ccc(C2CCCCCN2S(=O)(=O)N(C)C)cc1 (configuration not stated) | 14.85%
* O=C(COc1coc(CN2CCCCCC2)cc1=O)c1ccccc1 | -10.82%
* Cc1nsc(NC(=O)NC2(CN3CCCCC3)CCCCC2)n1 | 11.02%
* Cc1nn(CCO)c(C)c1-c1cc(C(C)(C)C)nc(N)c1C#N | -23.17%
* CNC(=O)NCC(CO)Cc1cccc(OC(F)(F)F)c1 (configuration not stated) | 14%
* CCN1CCOCC2(CCCN(C(=O)c3conc3C)C2)C1.O=C(O)C(F)(F)F (configuration not stated) | 6.922%
* CCOc1ccc(NC(C)C(=O)NCCc2cccs2)cc1CO (configuration not stated) | 18.48%
* Cc1ccc(OCCNC(=O)C(C)n2cncn2)cc1 (configuration not stated) | -33.79%
* Cc1nnc(CN(Cc2ccc3c(c2)OCO3)C2CCC(C)CC2)o1 (configuration not stated) | 50.97%
* Cc1ccc(CNC(=O)CCNS(C)(=O)=O)cc1 | -5.364%
* CCOC(C)c1noc(CN2CCN(c3ccncc3)CC2)n1 (configuration not stated) | 11.28%
* O=C(NCc1ccc(CO)cc1)C1CCOc2ccccc2C1 (configuration not stated) | 0.02029%
* CN1CCN(C2CCN(CCCOc3ccc(F)cc3)CC2)C1=O | -29.38%
* CC(=O)c1ccc(N2CCC3(CCC(=O)N(CCCO)C3)CC2)nc1 | 1.253%
* COC1CCN(Cc2csc(C(C)C)n2)CC1 | -6.67%
* CN(Cc1ccccc1)CC1(O)CCCN(CC(C)(C)C)C1=O (configuration not stated) | -4.669%
* COc1cc(N2CCC3(CCN(Cc4csc(C)n4)C3)CC2)ncn1.O=C(O)C(F)(F)F | 24.59%
* COCC(NC(=O)c1cnn(C)c1)c1cccc(C(F)(F)F)c1 (configuration not stated) | -14.23%
* O=C(c1cnccn1)N1CCCC2(CCCN2Cc2cccnc2)C1 (configuration not stated) | -4.447%
* CCc1cc(CN(C)C(=O)c2cnc3c(c2)nc(N)n3CC)on1 | -34.82%
* CC(C)(N)C(=O)N1CCCC1c1cncc(Oc2ccccc2)n1 (configuration not stated) | -3.501%
* Cc1n[nH]c(C)c1-c1c(C#N)c(N)nc2c1CCc1[nH]ccc1-2 | 20.3%
* Cc1ccc(-c2csc3c(=O)[nH]c(N4CCCC(C(=O)O)C4)nc23)cc1 (configuration not stated) | -36.55%
* CSCCNc1ccc(C(=O)N(C)Cc2ccc3ccccc3n2)cn1 | 14.09%
* CS(=O)(=O)NCc1nnc2n1CCN(CC1CC1)C2 | 24.16%
* [H][C@]12CCN(C(=O)c3cc(C)oc3C)C[C@@]1([H])OCCN(C(C)=O)C2 | -4.593%
* Cc1cccc(CNC(Cc2ccsc2)c2nccs2)n1 (configuration not stated) | 22.28%
* Cc1ccc(C(=O)N(CC(=O)O)CC(C)C)cc1F | 2.083%
* CSc1ccc(OCCN2CCNC(=O)C2C)cc1 (configuration not stated) | -2.641%
* CCN(CCc1nc2cc(C)ccc2[nH]1)C(=O)[C@@H](N)COC | 5.623%
* O=C(O)C(F)(F)F.O=C(O)C(F)(F)F.[H][C@@]12CCN(C(=O)CC(C)C)CC[C@]1(C(=O)Nc1cccnc1)CCN2C | -10.61%
* CCCc1ccc(C(=O)N2CCn3c(nnc3C(C)C)C2)cc1 | 26.57%

For reference, 4 entries once more:

{"compound": "CC(C)(N)C(=O)N1CCCC1c1cncc(Oc2ccccc2)n1", "stereo": "configuration not stated", "Percent Effect": -3.501}
{"compound": "O=C(NCc1ccc(CO)cc1)C1CCOc2ccccc2C1", "stereo": "configuration not stated", "Percent Effect": 0.02029}
{"compound": "O=C(O)C(F)(F)F.O=C(O)C(F)(F)F.[H][C@@]12CCN(C(=O)CC(C)C)CC[C@]1(C(=O)Nc1cccnc1)CCN2C", "Percent Effect": -10.61}
{"compound": "COCC(NC(=O)c1cnn(C)c1)c1cccc(C(F)(F)F)c1", "stereo": "configuration not stated", "Percent Effect": -14.23}